{"source": "PubChem BioAssay AID330", "about": "(DTP/NCI, 2004)", "test_system": "P388 leukemia ip, CD2F1 mice, survival T/C", "assay": "NCI In Vivo Anticancer Drug Screen. Data for tumor model P388 Leukemia (intraperitoneal) in CD2F1 (CDF1) mice", "settings": "T/C endpoint: median survival time, higher T/C = longer survival", "key": {"[1]": {"settings": "dose: 3.0 mg/kg/injection, schedule: Q01DX005 (ip), vehicle: saline + alcohol"}, "[2]": {"settings": "dose: 6.0 mg/kg/injection, schedule: Q01DX005 (ip), vehicle: saline + alcohol"}, "[3]": {"settings": "dose: 25.0 mg/kg/injection, schedule: Q01DX009 (ip), vehicle: saline with Tween-80"}}, "note": "The list is a part of this screen's results and no random one: it is rich in T/C values a quarter to a half above the control, in often repeated tests (any T/C) and in doses without a T/C. Further doses and runs are listed elsewhere. T/C is the treated group as % of the vehicle group. Some entries give survivors of the animals treated and no T/C: the source files T/C as zero there, which appears to mark a toxic dose or a test without result, not a measured value. Some survivor counts are full or nearly so, which does not show that the dose was tolerated: the source hardly ever lists a survival T/C far under the control, and the zero likely stands for such cases as well. Survivors were counted at the toxicity check, usually on the fifth day, unless a day is given; later deaths do not show. Schedules are NCI's codes, read here as Q, the interval in days (D) or hours (H), X, the number of doses. Some entries were tested several times; their values stand side by side, smallest first. Some molecules as drawn cover several salts, stereoisomers or complexes of the source; a dose is that of the sample tested. For survival time, this PubChem deposit counts one and a half times the control or more as active, and values a quarter to a half above the control carry no call in these data; other NCI protocols may use other cut-offs. Some T/C values carry the count of animals alive at the toxicity check (mostly the fifth day); where none is given, no animal had died by that day.", "data": [{"molecule": "CCC/C=C/C=C\\C(=O)O[C@@H]1[C@@H](C)[C@]2(O)[C@@H]3C=C(C)C(=O)[C@H]3CC(COC(C)=O)=C[C@H]2[C@@H]2C(C)(C)[C@]12OC(C)=O", "values": [{"measurement": "T/C", "setting": "dose: 0.75 mg/kg/injection, schedule: Q01DX005 (ip), vehicle: saline + alcohol", "value": "98, 104, 105, 153 % of control"}, {"measurement": "T/C", "setting": "dose: 1.5 mg/kg/injection, schedule: Q01DX005 (ip), vehicle: saline + alcohol", "value": "101, 105, 108, 177 % of control"}, {"measurement": "T/C", "setting": "[1]", "value": "106, 110, 288 % of control"}, {"measurement": "survivor count", "setting": "[1]", "value": "3 of 5"}, {"measurement": "T/C", "setting": "[2]", "value": "119 and 130 % of control"}, {"measurement": "survivor count", "setting": "[2]", "value": "2 of 5 and 5 of 5"}, {"measurement": "survivor count", "setting": "dose: 6.0 mg/kg/injection, schedule: Q01DX005 (ip), vehicle: saline with Tween-80", "value": "0 of 5"}, {"measurement": "survivor count", "setting": "dose: 12.0 mg/kg/injection, schedule: Q01DX005 (ip), vehicle: saline + alcohol", "value": "0 of 6"}]}, {"molecule": "N=C(N)c1ccc(SCCCCCSc2ccc(C(=N)N)cc2)cc1", "values": [{"measurement": "T/C", "setting": "dose: 3.13 mg/kg/injection, schedule: Q01DX009 (ip), vehicle: saline", "value": "126 % of control"}, {"measurement": "T/C", "setting": "dose: 6.25 mg/kg/injection, schedule: Q01DX009 (ip), vehicle: saline", "value": "129 % of control"}, {"measurement": "T/C", "setting": "dose: 12.5 mg/kg/injection, schedule: Q01DX009 (ip), vehicle: saline", "value": "146 % of control"}, {"measurement": "survivor count", "setting": "[3]", "value": "5 of 6"}]}, {"molecule": "CCOC(=O)/C=C/C(=O)NNS(=O)(=O)CCC(N)C(=O)O", "note": "(centres undefined)", "values": [{"measurement": "survivor count", "setting": "dose: 200.0 mg/kg/injection, schedule: Q01DX009 (ip), vehicle: water", "value": "0 of 6"}]}, {"molecule": "CC(C)c1ccc(C[n+]2ccccc2/C=N/O)cc1", "values": [{"measurement": "survivor count", "setting": "dose: 50.0 mg/kg/injection, schedule: Q01DX005 (ip), vehicle: saline with Tween-80", "value": "2 of 5"}, {"measurement": "survivor count", "setting": "dose: 100.0 mg/kg/injection, schedule: Q01DX005 (ip), vehicle: saline with Tween-80", "value": "0 of 5"}, {"measurement": "survivor count", "setting": "dose: 200.0 mg/kg/injection, schedule: Q01DX005 (ip), vehicle: saline with Tween-80", "value": "0 of 5"}]}, {"molecule": "CC12CCC(Cl)CC1=CCC1C2CCC2(C)C1CCCN2CCCl", "note": "(centres undefined)", "values": [{"measurement": "T/C", "setting": "dose: 50.0 mg/kg/injection, schedule: Q01DX001 (ip), vehicle: saline with Tween-80", "value": "139 % of control"}, {"measurement": "survivor count", "setting": "dose: 50.0 mg/kg/injection, schedule: Q01DX001 (ip), vehicle: saline", "value": "0 of 6"}, {"measurement": "survivor count", "setting": "dose: 100.0 mg/kg/injection, schedule: Q01DX001 (ip), vehicle: saline with Tween-80", "value": "0 of 6"}, {"measurement": "survivor count", "setting": "dose: 100.0 mg/kg/injection, schedule: Q01DX001 (ip), vehicle: saline", "value": "0 of 6"}]}, {"molecule": "CCCc1cc(=O)[nH]c(Sc2ccc([N+](=O)[O-])cn2)n1", "values": [{"measurement": "survivor count", "setting": "dose: 50.0 mg/kg/injection, schedule: Q01DX005 (ip), vehicle: Klucel (hydroxypropylcellulose) (HPC)", "value": "1 of 5"}, {"measurement": "survivor count", "setting": "dose: 100.0 mg/kg/injection, schedule: Q01DX005 (ip), vehicle: Klucel (hydroxypropylcellulose) (HPC)", "value": "3 of 5"}, {"measurement": "survivor count", "setting": "dose: 200.0 mg/kg/injection, schedule: Q01DX005 (ip), vehicle: Klucel (hydroxypropylcellulose) (HPC)", "value": "0 of 5"}]}, {"molecule": "N#CC(=O)c1ccccc1", "values": [{"measurement": "survivor count", "setting": "dose: 25.0 mg/kg/injection, schedule: Q04DX003 (ip), vehicle: saline with Tween-80", "value": "2 of 6"}, {"measurement": "survivor count", "setting": "dose: 50.0 mg/kg/injection, schedule: Q04DX003 (ip), vehicle: saline with Tween-80", "value": "0 of 6"}, {"measurement": "survivor count", "setting": "dose: 100.0 mg/kg/injection, schedule: Q04DX003 (ip), vehicle: saline with Tween-80", "value": "0 of 6"}, {"measurement": "survivor count", "setting": "dose: 200.0 mg/kg/injection, schedule: Q04DX003 (ip), vehicle: saline with Tween-80", "value": "0 of 6"}]}, {"molecule": "Cc1c(-c2ccccc2)ccnc1/C=N/NC(=S)Nc1ccc(N(C)C)cc1", "values": [{"measurement": "T/C", "setting": "dose: 6.25 mg/kg/injection, schedule: Q01DX009 (ip), vehicle: saline with Tween-80", "value": "126 % of control"}, {"measurement": "T/C", "setting": "dose: 12.5 mg/kg/injection, schedule: Q01DX009 (ip), vehicle: saline with Tween-80", "value": "128 [5 of 6 alive] and 131 % of control"}, {"measurement": "T/C", "setting": "[3]", "value": "134 % of control"}, {"measurement": "survivor count", "setting": "[3]", "value": "6 of 6"}, {"measurement": "survivor count", "setting": "dose: 50.0 mg/kg/injection, schedule: Q01DX009 (ip), vehicle: saline with Tween-80", "value": "0 of 6"}, {"measurement": "survivor count", "setting": "dose: 100.0 mg/kg/injection, schedule: Q01DX009 (ip), vehicle: saline with Tween-80", "value": "0 of 6"}, {"measurement": "survivor count", "setting": "dose: 200.0 mg/kg/injection, schedule: Q01DX009 (ip), vehicle: saline with Tween-80", "value": "0 of 6"}]}]}
